Data published in PMC12458685, “Thwarting Isomerization through Rigidity: A Promising HBED Derivative for the Chelation of Gallium-68” (Inorganic Chemistry, 2025).

Key:
[1] = parameters: method as in number not given; settings: ref number not given, cited from earlier work
[2] = Radiolabeling with generator-produced [^68Ga]Ga^3+ (RCI by radio-TLC)
[3] = neutral pH (7), T = 90 °C, within 5 min

SMILES: O=C(O)CN1CCN(CC(=O)O)CCN(CC(=O)O)CC1 [NOTA, 1,4,7-triazacyclononane-1,4,7-triacetic acid]
- time for quantitative [^68Ga]Ga^3+ binding ([1]; room temperature, pH 3–5.5): ~10 min

SMILES: O=C(O)CN(Cc1ccccc1O)[C@@H]1CCCC[C@H]1N(CC(=O)O)Cc1ccccc1O [HBCD, N,N′-di(2-hydroxybenzyl)-(1,2-cyclohexanediamine)-N,N′-diacetic acid]
- ligand concentration giving quantitative RCI ([2]; neutral pH (7), RT, 15 min): 10^–5 M
- ligand concentration giving quantitative RCI [2, 3]: 10^–6 M
- ligand concentration giving quantitative RCI ([2]; pH 3, T = 90 °C, 5 min): 10^–4 M
- quantitative [^68Ga]Ga^3+ chelation (RCI) ([2]; pH 3, room temperature, any of the tested conditions): unable to quantitatively chelate
- ligand concentration giving quantitative RCI ([2]; pH 4.5, RT, 15 min): 10^–4 M
- ligand concentration giving quantitative RCI ([2]; pH 4.5, heating (90 °C), 15 min): 10^–6 M

SMILES: O=C(O)CN(CCN(CC(=O)O)Cc1ccccc1O)Cc1ccccc1O [HBED, N,N′-di(2-hydroxybenzyl)ethylenediamine-N,N′-diacetic acid]
- ligand concentration giving quantitative RCI ([2]; neutral pH (7), RT, 5 min): 10^–6 M
- ligand concentration giving quantitative RCI [2, 3]: 10^–6 M
- ligand concentration giving quantitative RCI ([2]; pH 3, T = 90 °C, 5 min): 10^–7 M
- ligand concentration giving quantitative RCI ([2]; pH 3, room temperature, 5 min): 10^–4 M
- ligand concentration giving quantitative RCI ([2]; pH 4.5, RT, 15 min): 10^–5 M
- ligand concentration giving quantitative RCI ([2]; pH 4.5, heating (90 °C), 5 min): 10^–7 M

SMILES: O=C(O)CN1CCN(CC(=O)O)CCN(CC(=O)O)CCN(CC(=O)O)CC1 [DOTA, 1,4,7,10-tetraazacyclododecane-1,4,7,10-tetraacetic acid]
- incubation time required for ^68Ga incorporation ([1]; T = 90 °C): > 10 min
